Measurements as given in the supplement of paper PMC8732350.
Several values for one entry are separate records, joined by “and”; a condition that tells them apart may be missing. Equal entries are not always repeated. Structures can show the parent of a compound that is named as a salt. ± gives the standard deviation of the averaged measurements. This is one part of the list. Repeats in this data set agree poorly, so a single value says little.

System: A549
Experiment: surface PD-L1 immunofluorescence intensity relative to IFN-gamma-only control (ratio); higher = more PD-L1 expression
Conditions: 10 µM; exposure time 24 h; IFN-gamma 100 ng/mL

SMILES	surface PD-L1 immunofluorescence intensity
COc1cc(NC(=O)c2ccc(-c3ccc(Cl)cc3)o2)cc(OC)c1	0.993
Nc1ncnc2nc(-c3ccc(N4CCOCC4)nc3)cc(-c3cccc(Br)c3)c12 [ABT 702 dihydrochloride]	0.985
C[C@]12C=CC(=O)C=C1CC[C@@H]1[C@@H]2C(=O)C[C@@]2(C)[C@H]1CC[C@]2(O)C(=O)CO [Prednisone]	0.85
C[C@]12C=CC(=O)C=C1CC[C@@H]1[C@@H]2C(=O)C[C@@]2(C)[C@H]1CC[C@]2(O)C(=O)CO [Prednisone (Adasone)]	1.04
C=CCn1c(=O)n([C@@H]2O[C@H](CO)[C@@H](O)[C@H]2O)c2nc(N)[nH]c(=O)c21	0.852
C[C@]12C=CC(=O)C=C1CC[C@@H]1C2=CC[C@]2(C)[C@@H](C(=O)CN3CCN(c4cc(N5CCCC5)nc(N5CCCC5)n4)CC3)CC[C@@H]12	0.948
Cc1ccc(/C(=C\CN2CCCC2)c2ccccn2)cc1 [trans-Triprolidine hydrochloride]	1.04
Cc1ccc(/C(=C\CN2CCCC2)c2ccccn2)cc1 [Triprolidine hydrochloride]	0.899
CC(C)(O/N=C(\C(=O)N[C@@H]1C(=O)N2C(C(=O)[O-])=C(C[n+]3ccccc3)CS[C@H]12)c1csc(N)n1)C(=O)O [Ceftazidime pentahydrate]	1.04
C=C1/C(=C\C=C2/CCC[C@]3(C)[C@@H]([C@H](C)CCCC(C)(C)O)CC[C@@H]23)C[C@@H](O)C[C@@H]1O [1a,25-Dihydroxyvitamin D3]	1.09
C=C1/C(=C\C=C2/CCC[C@]3(C)[C@@H]([C@H](C)CCCC(C)(C)O)CC[C@@H]23)C[C@@H](O)C[C@@H]1O [Calcitriol (Rocaltrol)]	1.16
Cc1c(Cl)cccc1Nc1ncccc1C(=O)O [Clonixin Lysinate]	1.01
OC[C@H]1O[C@@H](OCCc2ccc(O)cc2)[C@H](O)[C@@H](O)[C@@H]1O [Salidroside (Rhodioloside)]	1.05
CNCCC=C1c2ccccc2CCc2ccccc21 [Nortriptyline hydrochloride]	0.796
C[C@H]1[C@H](NC(=O)/C(=N\OC(C)(C)C(=O)O)c2csc(N)n2)C(=O)N1S(=O)(=O)O [Aztreonam (Azactam, Cayston)]	1.07
C[C@H]1[C@H](NC(=O)/C(=N\OC(C)(C)C(=O)O)c2csc(N)n2)C(=O)N1S(=O)(=O)O [Aztreonam]	1.04
CC1=C(/C=C/C(C)=C/C=C/C(C)=C/C(=O)O)C(C)(C)CCC1O (configuration not stated) [4-Hydroxyretinoic acid]	1.06
Cc1ccc(C(=O)Nc2ccc(S(=O)(=O)O)c3cc(S(=O)(=O)O)cc(S(=O)(=O)O)c23)cc1NC(=O)c1cccc(NC(=O)Nc2cccc(C(=O)Nc3cc(C(=O)Nc4ccc(S(=O)(=O)O)c5cc(S(=O)(=O)O)cc(S(=O)(=O)O)c45)ccc3C)c2)c1 [Suramin hexasodium salt]	1.11
CCC(=O)[C@@]1(C)[C@H](C)C[C@H]2[C@@H]3CCC4=CC(=O)C=C[C@]4(C)[C@H]3[C@@H](O)C[C@@]21C [Rimexolone]	0.883
CCc1cc(C(N)=S)ccn1 [Ethionamide]	1
OCc1ccc(O[C@@H]2O[C@H](CO)[C@@H](O)[C@H](O)[C@H]2O)cc1 [Gastrodin (Gastrodine)]	0.854
Cn1cc(C2=C(c3ccc(Cl)cc3Cl)C(=O)NC2=O)c2ccccc21	1.24 and 1.21
CN(N=O)C(=O)N[C@@H](C=O)[C@@H](O)[C@H](O)[C@H](O)CO [Streptozocin]	1.01
CN(N=O)C(=O)N[C@@H](C=O)[C@@H](O)[C@H](O)[C@H](O)CO [Streptozotocin]	1.04

SMILES	surface PD-L1 immunofluorescence intensity
CN1CCN(C(c2ccccc2)c2ccc(Cl)cc2)CC1 (configuration not stated) [Chlorcyclizine hydrochloride]	1.03
Cc1cccc(Nc2cc(Cl)nc(SCC(=O)O)n2)c1C	1.02 and 1.06
O=C(N/N=C/c1ccc([N+](=O)[O-])o1)c1ccc(O)cc1 [Nifuroxazide]	0.994
NC(=O)c1ncn([C@@H]2O[C@H](CO)[C@@H](O)[C@H]2O)c1O [Mizoribine (Bredinin)]	1.01
Cc1cn([C@@H]2C[C@@H](O)[C@H](CO)O2)c(=O)[nH]c1=O [Telbivudine (Sebivo, Tyzeka)]	1.07
CN(C)CCCSc1ccccc1NC(=O)/C=C/c1ccccc1 [Cinanserin hydrochloride]	0.955
COC(=O)[C@H]1[C@H]2C[C@@H]3c4[nH]c5cc(OC)ccc5c4CCN3C[C@H]2C[C@@H](OC(=O)c2cc(OC)c(OC)c(OC)c2)[C@@H]1OC [Reserpine]	1 ± 0.1
COc1cc2c(cc1OC)-c1cc3ccc(OC)c(OC)c3c[n+]1CC2 [Palmatine chloride]	1.14
CC(C)C[C@H](NC(=O)[C@@H](O)[C@H](N)Cc1ccccc1)C(=O)O [Bestatin]	0.973
C=CCc1ccc(O)c(-c2ccc(O)c(CC=C)c2)c1 [Honokiol]	1.06 ± 0.046
CNC(=C[N+](=O)[O-])NCCSCc1ccc(CN(C)C)o1 [Ranitidine hydrochloride]	0.989 ± 0.038
CCOC(=O)Nc1ccc2c(c1)N(C(=O)CCN1CCOCC1)c1ccccc1S2 [Moricizine hydrochloride]	1.07
O=c1c(-c2ccc(O)cc2)coc2cc(O)cc(O)c12 [Genistein]	1.01 ± 0.043
C[C@H](NC(=O)Cc1cc(F)cc(F)c1)C(=O)N[C@@H]1C(=O)N(C)c2ccccc2-c2ccccc21	0.973
CSc1cccc(Nc2ncc3cc(-c4c(Cl)cccc4Cl)c(=O)n(C)c3n2)c1	1.28
[Cl-].[Li+] [Lithium Chloride]	1.08
CCCCCCN(CCCCCC)C(=O)Cc1c(-c2ccc(F)cc2)[nH]c2ccccc12	1.07
CC(=O)NNC(=O)N1Cc2ccccc2Oc2ccc(Cl)cc21	1.07
OC1CCC(Nc2nc(-c3ccccc3)nc3[nH]ccc23)CC1 (configuration not stated)	1.02
CNC[C@H](O)c1cccc(O)c1 [Phenylephrine HCl]	1.01
O=C(O[C@@H]1Cc2c(O)cc(O)cc2O[C@@H]1c1cc(O)c(O)c(O)c1)c1cc(O)c(O)c(O)c1 [Epigallocatechin gallate]	0.875 ± 0.079
N#C[C@@H]1CCCN1C(=O)CNC12CC3CC(CC(O)(C3)C1)C2 [Vildagliptin (LAF-237)]	0.996
COc1cc2ncnc(Nc3ccc(Cl)cc3F)c2cc1OC	0.86
N[C@@H]1CCCN(c2c(/C=C3\SC(=O)NC3=O)cccc2-c2ccccc2)C1	1.07

Part of the list above, field by field.
O=C(O[C@@H]1Cc2c(O)cc(O)cc2O[C@@H]1c1cc(O)c(O)c(O)c1)c1cc(O)c(O)c(O)c1 [Epigallocatechin gallate]
  surface PD-L1 immunofluorescence intensity: 0.875 ± 0.079
N#C[C@@H]1CCCN1C(=O)CNC12CC3CC(CC(O)(C3)C1)C2 [Vildagliptin (LAF-237)]
  surface PD-L1 immunofluorescence intensity: 0.996
COc1cc2ncnc(Nc3ccc(Cl)cc3F)c2cc1OC
  surface PD-L1 immunofluorescence intensity: 0.86
N[C@@H]1CCCN(c2c(/C=C3\SC(=O)NC3=O)cccc2-c2ccccc2)C1
  surface PD-L1 immunofluorescence intensity: 1.07

The results go on:

SMILES	surface PD-L1 immunofluorescence intensity
Cc1cccc(CCN2CCC(C(=O)c3ccc(NS(C)(=O)=O)cc3)CC2)n1 [E-4031 dihydrochloride]	0.981
CO[C@H]1C[C@@H]2CC[C@@H](C)[C@@](O)(O2)C(=O)C(=O)N2CCCC[C@H]2C(=O)O[C@H]([C@H](C)C[C@@H]2CC[C@@H](O)[C@H](OC)C2)CC(=O)[C@H](C)/C=C(\C)[C@@H](O)[C@@H](OC)C(=O)[C@H](C)C[C@H](C)/C=C/C=C/C=C/1C [Rapamycin]	1
C#C[C@]1(O)CC[C@H]2[C@@H]3CCc4cc(OC)ccc4[C@H]3CC[C@@]21C [Ethynylestradiol 3-methyl ether]	0.941
C#C[C@]1(O)CC[C@H]2[C@@H]3CCc4cc(OC)ccc4[C@H]3CC[C@@]21C [Mestranol]	1.15
CC(C)NCC(O)c1ccc(NS(C)(=O)=O)cc1 (configuration not stated) [Sotalol hydrochloride]	1.03 ± 0.084
CC1=C(C)C(=O)C(CCCCC#CCCCC#CCO)=C(C)C1=O	0.952
CN(C)CCCCSC(=N)N	1.02
COc1ccc2cccc(CCNC(C)=O)c2c1 [Agomelatine]	1.03
COc1cc(C=O)ccc1O [Vanillin]	1.05
Cc1[nH]c(/C=C2\C(=O)Nc3ccccc32)c(C)c1CCC(=O)O	1.01 and 0.962
CC(=O)N1CCN(c2ccc(OCC3COC(Cn4ccnc4)(c4ccc(Cl)cc4Cl)O3)cc2)CC1 (configuration not stated) [Ketoconazole]	1.09 ± 0.15
CC(C)(C)NS(=O)(=O)c1cncc(-c2cc(F)c3nc(N)nn3c2)c1	1.01
O=C(O)P(=O)(O)O [Foscarnet Sodium]	0.957
Clc1ccccc1CN1CCc2sccc2C1 [Ticlopidine hydrochloride]	0.913
COc1cc(Br)c(S(=O)(=O)Nc2ccc(Cl)c(O[C@@H]3CCN(C)C3)c2)cc1OC	0.991
CCN(CC)CCOC(=O)C1(c2ccc([N+](=O)[O-])cc2)CCCC1 [Nitrocaramiphen hydrochloride]	0.961 ± 0.011
Cc1cc(NC(=O)C2=C(O)c3ccccc3S(=O)(=O)N2C)no1 [Isoxicam]	0.871
CO[C@@]1(NC(=O)C2SC(=C(C(N)=O)C(=O)O)S2)C(=O)N2C(C(=O)O)=C(CSc3nnnn3C)CS[C@@H]21 (some centres not stated) [Cefotetan]	1.01
CN(C)CCCN1c2ccccc2CCc2ccc(Cl)cc21 [Clomipramine hydrochloride]	1.01 ± 0.1
C[C@H](CCC(=O)NCC(=O)O)[C@H]1CC[C@H]2[C@@H]3CC[C@@H]4C[C@H](O)CC[C@]4(C)[C@H]3C[C@H](O)[C@]12C [Glycodeoxycholic acid]	1.04
COC(=O)C1=C(C)NC(C)=C(C(=O)OC)C1c1ccccc1[N+](=O)[O-] [Nifedipine]	0.969 ± 0.11
CN(C)c1nc(N)c(C(=O)Nc2cccnc2)nc1Cl [ACDPP hydrochloride]	0.866
N#Cc1ccc(NCCNCC(=O)N2CCC[C@H]2C#N)nc1 [NVP DPP 728 dihydrochloride]	1.07
CO[C@@]1(NC(=O)C(C(=O)O)c2ccc(O)cc2)C(=O)N2C(C(=O)O)=C(CSc3nnnn3C)CO[C@@H]21 (some centres not stated) [Moxalactam disodium salt]	0.979
